Taken from: PubChem BioAssay AID1259331 (Drosophila RNAi Screening Center, 2017)
This is a random part of about 3,100 reagents tested. 126 of them (4.1%) were called active. 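Calls are per reagent; zinc was so toxic that few knock-downs lowered ATP further, so most hits raise ATP.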 The raw values are shown without normalisation. A plus sign joins genes that one reagent is predicted to hit. Reagent sequences are not shown. The record does not give: the amount of reagent.

Screen: 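Genes whose knock-down changes cell survival under toxic zinc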 (primary screen)
Cell system: Drosophila S2R+ cells
Reagents: long dsRNA against Drosophila genes
Timing: 5 days (4 days knock-down, then 1 day zinc)
Treatment: zinc chloride at 15 mM final level for 1 day
Measured: 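Luminescent ATP assay standing in for viability; Z score is the mean over three replicate plates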
Reading the numbers: mean Z score: higher = more ATP than other wells, better survival under zinc; ATP luminescence: higher = more ATP, more viable cells
Call rule: 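a reagent is called a hit when its Z score is above 1.5 or below -1.5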
Meaning of the calls: active = hit, ATP up or down; inactive = not a hit

| gene knocked down | amplicon | mean Z score | ATP luminescence, replicate 1 | ATP luminescence, replicate 2 | activity call |
| --- | --- | --- | --- | --- | --- |
| CG6149 (GeneID 39277) | DRSC10593 | -0.321 | 70235 | 57694 | inactive |
| CG33181 (GeneID 318916) | DRSC17971 | -0.541 | 52830 | 61421 | inactive |
| CG33181 (GeneID 318916) | DRSC29457 | -0.251 | 59963 | 55042 | inactive |
| mthl4 (GeneID 36960) | DRSC06998 | -0.514 | 63289 | 64830 | inactive |
| TrpA1 (GeneID 39015) | DRSC10544 | 1.05 | 94593 | 83168 | inactive |
| Tsp2A (GeneID 31080) | DRSC18584 | -0.489 | 53396 | 62570 | inactive |
| Tsp2A (GeneID 31080) | DRSC39445 | 0.172 | 47960 | 60049 | inactive |
| CG42542 (GeneID 8674000) | DRSC15549 | -0.62 | 42028 | 35031 | inactive |
| CG42542 (GeneID 8674000) | DRSC26676 | -0.13 | 60517 | 50003 | inactive |
| VhaM9.7-d (GeneID 42041) | DRSC15028 | 0.417 | 54351 | 61061 | inactive |
| wtrw (GeneID 40931) | DRSC14241 | 0.567 | 51978 | 53601 | inactive |
| wtrw (GeneID 40931) | DRSC29977 | -0.0757 | 46057 | 43897 | inactive |
| Sr-CIV (GeneID 33576) | DRSC00575 | 0.0549 | 54219 | 42158 | inactive |
| Sr-CIV (GeneID 33576) | DRSC24930 | 0.227 | 67200 | 62535 | inactive |
| nrv3 (GeneID 35408) | DRSC03097 | -0.718 | 43266 | 44822 | inactive |
| nes (GeneID 40093) | DRSC11375 | -0.697 | 62278 | 49501 | inactive |
| nes (GeneID 40093) | DRSC39655 | -0.118 | 63873 | 62433 | inactive |
| Ac13E (GeneID 32485) | DRSC19325 | 0.414 | 76393 | 69352 | inactive |
| Ac13E (GeneID 32485) | DRSC27333 | -0.331 | 56705 | 49778 | inactive |
| tor (GeneID 35717) | DRSC07707 | 0.088 | 70716 | 76102 | inactive |
| tor (GeneID 35717) | DRSC36623 | 0.0159 | 45971 | 51561 | inactive |
| tor (GeneID 35717) | DRSC36624 | -0.198 | 47137 | 44132 | inactive |
| Or33c (GeneID 34603) | DRSC03388 | 0.373 | 60649 | 37227 | inactive |
| Vmat + CG13330 | DRSC06365 | 0.562 | 34107 | 39576 | inactive |
| Vmat + CG13330 | DRSC28600 | -0.155 | 59253 | 58763 | inactive |
| Tret1-2 (GeneID 36249) | DRSC07117 | 2.73 | 1.35e5 | 1.37e5 | active |
| Tret1-2 (GeneID 36249) | DRSC28985 | 0.0661 | 63890 | 60906 | inactive |
| CG4101 (GeneID 39857) | DRSC10400 | -0.521 | 63770 | 53721 | inactive |
| CG42340 (GeneID 7354472) | DRSC18305 | 6.06 | 1.74e5 | 1.59e5 | active |
| CG42340 (GeneID 7354472) | DRSC23657 | -0.0138 | 61541 | 60812 | inactive |
| CG11367 (GeneID 40491) | DRSC22434 | 0.471 | 61009 | 63770 | inactive |
| nAChRalpha7 (GeneID 32928) | DRSC20078 | -0.247 | 40485 | 39833 | inactive |
| nAChRalpha7 (GeneID 32928) | DRSC20081 | -0.119 | 37344 | 39628 | inactive |
| CG10702 (GeneID 35181) | DRSC02097 | 0.0271 | 58439 | 54645 | inactive |
| CG10702 (GeneID 35181) | DRSC36848 | -0.276 | 45371 | 44377 | inactive |
| CG10702 (GeneID 35181) | DRSC36849 | -0.275 | 46571 | 41908 | inactive |
| Dic4 (GeneID 40039) | DRSC10317 | -0.0847 | 71968 | 58145 | inactive |
| Ent1 (GeneID 33207) | DRSC00330 | -0.578 | 48029 | 48097 | inactive |
| Tomosyn (GeneID 32217) | DRSC19842 | 0.772 | 81179 | 76462 | inactive |
| Tomosyn (GeneID 32217) | DRSC25047 | 0.282 | 60534 | 55985 | inactive |
| CG31431 (GeneID 326138) | DRSC14589 | -0.129 | 39045 | 53738 | inactive |
| CG31431 (GeneID 326138) | DRSC39614 | -0.196 | 61318 | 55059 | inactive |
| Dh44-R2 (GeneID 36368) | DRSC06141 | -0.146 | 63513 | 69430 | inactive |
| Nmdar1 (GeneID 40665) | DRSC12071 | 0.48 | 74626 | 73392 | inactive |
| Nmdar1 (GeneID 40665) | DRSC12356 | 0.16 | 76187 | 65074 | inactive |
| Nmdar1 (GeneID 40665) | DRSC24657 | -0.568 | 51372 | 46537 | inactive |

4 of these entries, set out differently.
CG31431 (GeneID 326138) [DRSC14589]
- mean Z score: -0.129
- ATP luminescence, replicate 1: 39045
- ATP luminescence, replicate 2: 53738
- activity call: inactive

CG31431 (GeneID 326138) [DRSC39614]
- mean Z score: -0.196
- ATP luminescence, replicate 1: 61318
- ATP luminescence, replicate 2: 55059
- activity call: inactive

Dh44-R2 (GeneID 36368) [DRSC06141]
- mean Z score: -0.146
- ATP luminescence, replicate 1: 63513
- ATP luminescence, replicate 2: 69430
- activity call: inactive

Nmdar1 (GeneID 40665) [DRSC12071]
- mean Z score: 0.48
- ATP luminescence, replicate 1: 74626
- ATP luminescence, replicate 2: 73392
- activity call: inactive
